# According to publication PMC5814057, “Folic acid derived-P5779 mimetics regulate DAMP-mediated inflammation through disruption of HMGB1:TLR4:MD-2 axes” (PLoS ONE, 2018):
# By UniProt entry, the sequences of proteins in these tests, tags left out.
# UniProt P63159: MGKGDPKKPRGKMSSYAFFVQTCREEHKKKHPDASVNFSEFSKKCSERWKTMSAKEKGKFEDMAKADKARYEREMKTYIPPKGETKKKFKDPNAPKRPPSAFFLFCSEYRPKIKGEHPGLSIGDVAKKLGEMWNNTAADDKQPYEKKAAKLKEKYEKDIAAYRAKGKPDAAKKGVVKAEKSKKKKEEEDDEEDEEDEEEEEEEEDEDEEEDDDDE
# These are yes or no findings as the source states them, for the method shown. Some entries that bind do so weakly or less than the wild type.
# B1: Recombinant human MD2 protein (R&D 1787-MD) (protein, UniProt Q9Y6Y9 19-160)
# chain: QKQYWVCNSSDASISYTYCDKMQYPISINVNPCIELKRSKGLLHIFYIPRRDLKQLYFNLYITVNTMNLPKRKEVICRGSDDDYSFCRALKGETVNTTISFSFKGIKFSKGKYKCVVEAISGSPEEMLFCLEFVILHQPNSN
# Target: Recombinant HMGB1 (High mobility group box 1), wild type, disulfide form (UniProt P63159)
# Test: SPR; inhibition assay: wild type HMGB1 immobilised on CM5 to 400 RU; MD-2 (0.5 uM) incubated 15 min with or without inhibitor, injected at 30 uL/min for 60 s; 1X PBS + 0.05% Tween 20; both purified
binder,measurement,value
B1,binding,binds
